These results are taken from the supplement of paper PMC10849652.

Amino acid sequences for entries named in this document (tags omitted). A change or cut given only in a name is not applied to a line headed by its entry.
UniProt Q2KHR2: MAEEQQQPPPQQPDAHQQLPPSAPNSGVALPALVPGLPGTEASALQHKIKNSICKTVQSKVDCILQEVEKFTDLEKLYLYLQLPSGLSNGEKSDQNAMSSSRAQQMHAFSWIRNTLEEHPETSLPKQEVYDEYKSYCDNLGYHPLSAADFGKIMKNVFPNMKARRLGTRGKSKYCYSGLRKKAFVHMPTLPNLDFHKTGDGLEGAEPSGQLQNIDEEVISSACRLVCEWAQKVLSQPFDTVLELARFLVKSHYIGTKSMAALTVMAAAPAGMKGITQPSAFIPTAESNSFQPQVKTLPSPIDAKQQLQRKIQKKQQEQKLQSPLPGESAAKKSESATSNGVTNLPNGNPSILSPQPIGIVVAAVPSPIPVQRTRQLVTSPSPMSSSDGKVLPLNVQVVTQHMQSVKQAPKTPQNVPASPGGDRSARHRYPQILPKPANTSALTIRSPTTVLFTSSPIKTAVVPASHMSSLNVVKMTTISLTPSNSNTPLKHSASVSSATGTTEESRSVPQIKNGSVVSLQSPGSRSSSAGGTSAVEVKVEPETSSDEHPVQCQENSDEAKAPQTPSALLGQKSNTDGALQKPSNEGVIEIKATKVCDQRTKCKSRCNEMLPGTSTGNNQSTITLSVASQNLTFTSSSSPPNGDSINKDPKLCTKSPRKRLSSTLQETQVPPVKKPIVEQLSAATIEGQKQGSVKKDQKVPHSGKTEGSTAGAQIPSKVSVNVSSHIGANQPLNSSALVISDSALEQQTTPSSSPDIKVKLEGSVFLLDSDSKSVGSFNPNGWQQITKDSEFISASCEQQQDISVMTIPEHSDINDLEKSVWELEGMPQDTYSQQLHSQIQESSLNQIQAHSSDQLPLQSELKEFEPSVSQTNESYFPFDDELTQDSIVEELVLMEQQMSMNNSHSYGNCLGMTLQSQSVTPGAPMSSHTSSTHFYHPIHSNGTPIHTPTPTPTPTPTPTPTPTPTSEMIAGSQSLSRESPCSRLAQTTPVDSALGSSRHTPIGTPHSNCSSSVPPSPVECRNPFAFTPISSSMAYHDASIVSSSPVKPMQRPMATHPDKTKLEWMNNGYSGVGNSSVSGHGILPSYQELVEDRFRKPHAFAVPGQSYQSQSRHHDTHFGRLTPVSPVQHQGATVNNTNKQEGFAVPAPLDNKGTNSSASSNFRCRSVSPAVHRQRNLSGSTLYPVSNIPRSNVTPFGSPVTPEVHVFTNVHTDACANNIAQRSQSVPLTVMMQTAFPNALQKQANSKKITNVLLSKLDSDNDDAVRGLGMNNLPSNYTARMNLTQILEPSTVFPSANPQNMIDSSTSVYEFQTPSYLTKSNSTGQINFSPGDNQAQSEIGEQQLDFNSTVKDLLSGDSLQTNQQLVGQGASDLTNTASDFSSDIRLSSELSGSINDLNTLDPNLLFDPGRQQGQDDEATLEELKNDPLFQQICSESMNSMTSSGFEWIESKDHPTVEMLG
UniProt Q09028, whole entry, looked up: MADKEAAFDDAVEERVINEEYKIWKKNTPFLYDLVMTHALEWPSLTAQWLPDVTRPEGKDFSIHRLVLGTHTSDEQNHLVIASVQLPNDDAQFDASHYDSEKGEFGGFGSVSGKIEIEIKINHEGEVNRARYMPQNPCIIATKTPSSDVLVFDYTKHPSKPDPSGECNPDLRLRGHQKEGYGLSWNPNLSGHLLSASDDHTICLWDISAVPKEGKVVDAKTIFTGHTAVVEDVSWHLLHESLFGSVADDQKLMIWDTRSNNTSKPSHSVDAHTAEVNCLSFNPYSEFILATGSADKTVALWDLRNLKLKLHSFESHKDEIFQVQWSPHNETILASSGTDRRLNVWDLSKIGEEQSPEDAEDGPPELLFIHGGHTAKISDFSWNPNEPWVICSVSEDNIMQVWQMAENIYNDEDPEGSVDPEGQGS
UniProt Q99666, whole entry, looked up: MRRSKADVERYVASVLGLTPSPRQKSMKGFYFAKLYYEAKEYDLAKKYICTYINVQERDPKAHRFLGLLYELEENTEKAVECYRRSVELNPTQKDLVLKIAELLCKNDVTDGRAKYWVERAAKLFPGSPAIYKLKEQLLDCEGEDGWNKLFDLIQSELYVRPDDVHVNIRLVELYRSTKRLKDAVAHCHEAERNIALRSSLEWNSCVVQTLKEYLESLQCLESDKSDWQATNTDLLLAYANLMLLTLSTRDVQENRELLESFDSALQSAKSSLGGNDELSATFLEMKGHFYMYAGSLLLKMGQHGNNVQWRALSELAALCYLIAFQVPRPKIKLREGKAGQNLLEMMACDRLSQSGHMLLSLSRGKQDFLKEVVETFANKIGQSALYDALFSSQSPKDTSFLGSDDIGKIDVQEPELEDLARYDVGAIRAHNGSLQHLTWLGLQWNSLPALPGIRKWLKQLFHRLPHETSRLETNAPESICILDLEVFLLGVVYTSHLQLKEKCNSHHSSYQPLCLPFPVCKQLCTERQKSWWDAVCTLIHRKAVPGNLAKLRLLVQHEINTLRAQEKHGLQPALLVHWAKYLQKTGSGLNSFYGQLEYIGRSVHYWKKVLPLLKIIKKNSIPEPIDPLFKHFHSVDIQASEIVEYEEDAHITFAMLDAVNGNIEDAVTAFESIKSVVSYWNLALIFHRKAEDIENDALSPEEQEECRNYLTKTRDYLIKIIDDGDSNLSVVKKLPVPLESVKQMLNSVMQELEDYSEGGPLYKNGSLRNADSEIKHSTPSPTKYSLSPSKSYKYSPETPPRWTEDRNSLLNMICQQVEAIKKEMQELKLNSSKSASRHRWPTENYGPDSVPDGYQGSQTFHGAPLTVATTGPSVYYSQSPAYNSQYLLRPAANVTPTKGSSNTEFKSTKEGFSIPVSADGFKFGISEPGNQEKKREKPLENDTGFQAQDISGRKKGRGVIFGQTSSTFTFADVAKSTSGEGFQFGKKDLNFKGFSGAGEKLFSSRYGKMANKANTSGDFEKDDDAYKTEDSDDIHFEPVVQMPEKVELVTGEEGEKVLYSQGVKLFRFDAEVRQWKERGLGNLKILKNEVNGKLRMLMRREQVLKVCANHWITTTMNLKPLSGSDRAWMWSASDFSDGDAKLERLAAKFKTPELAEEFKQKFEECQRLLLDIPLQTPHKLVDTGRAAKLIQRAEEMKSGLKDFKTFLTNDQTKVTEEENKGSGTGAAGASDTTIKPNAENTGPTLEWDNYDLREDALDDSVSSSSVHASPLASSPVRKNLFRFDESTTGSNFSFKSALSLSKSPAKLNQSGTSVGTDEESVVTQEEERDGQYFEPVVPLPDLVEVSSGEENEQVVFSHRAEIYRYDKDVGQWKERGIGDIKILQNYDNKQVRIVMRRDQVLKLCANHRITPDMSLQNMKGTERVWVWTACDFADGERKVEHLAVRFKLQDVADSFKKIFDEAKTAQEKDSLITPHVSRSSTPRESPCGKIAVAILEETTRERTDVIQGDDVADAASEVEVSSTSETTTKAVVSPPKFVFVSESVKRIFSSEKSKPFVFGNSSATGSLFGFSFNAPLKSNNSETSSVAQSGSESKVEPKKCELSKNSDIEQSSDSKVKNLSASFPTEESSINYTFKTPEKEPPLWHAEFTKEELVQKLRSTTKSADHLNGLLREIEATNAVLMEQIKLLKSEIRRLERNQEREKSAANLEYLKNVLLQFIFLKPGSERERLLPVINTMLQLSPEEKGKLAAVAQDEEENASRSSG
UniProt O94762: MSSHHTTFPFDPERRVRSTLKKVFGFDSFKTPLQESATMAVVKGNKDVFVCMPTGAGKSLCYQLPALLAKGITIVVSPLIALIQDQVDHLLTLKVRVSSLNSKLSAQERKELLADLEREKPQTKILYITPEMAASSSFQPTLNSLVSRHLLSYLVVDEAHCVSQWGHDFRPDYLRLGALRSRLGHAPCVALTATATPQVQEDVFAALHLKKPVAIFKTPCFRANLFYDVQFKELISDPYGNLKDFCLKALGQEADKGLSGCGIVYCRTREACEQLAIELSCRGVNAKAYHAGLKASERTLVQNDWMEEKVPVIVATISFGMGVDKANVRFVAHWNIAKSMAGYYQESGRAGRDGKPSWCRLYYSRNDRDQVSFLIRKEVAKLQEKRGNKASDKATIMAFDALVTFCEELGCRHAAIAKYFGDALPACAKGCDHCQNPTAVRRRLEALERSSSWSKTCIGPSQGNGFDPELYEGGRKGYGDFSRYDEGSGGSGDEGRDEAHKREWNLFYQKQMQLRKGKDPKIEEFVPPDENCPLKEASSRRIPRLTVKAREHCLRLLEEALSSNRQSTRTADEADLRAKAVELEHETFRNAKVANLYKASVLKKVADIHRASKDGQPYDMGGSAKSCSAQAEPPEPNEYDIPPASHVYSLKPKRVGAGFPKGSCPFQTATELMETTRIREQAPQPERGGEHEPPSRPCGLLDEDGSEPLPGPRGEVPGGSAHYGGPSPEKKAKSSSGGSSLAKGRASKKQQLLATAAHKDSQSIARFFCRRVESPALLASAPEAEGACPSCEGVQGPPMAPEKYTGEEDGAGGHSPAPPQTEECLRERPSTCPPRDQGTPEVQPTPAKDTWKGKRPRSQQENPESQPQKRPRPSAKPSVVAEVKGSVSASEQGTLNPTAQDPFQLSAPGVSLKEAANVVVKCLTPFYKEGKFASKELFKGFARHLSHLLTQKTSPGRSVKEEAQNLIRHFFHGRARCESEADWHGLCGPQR
UniProt Q86U06: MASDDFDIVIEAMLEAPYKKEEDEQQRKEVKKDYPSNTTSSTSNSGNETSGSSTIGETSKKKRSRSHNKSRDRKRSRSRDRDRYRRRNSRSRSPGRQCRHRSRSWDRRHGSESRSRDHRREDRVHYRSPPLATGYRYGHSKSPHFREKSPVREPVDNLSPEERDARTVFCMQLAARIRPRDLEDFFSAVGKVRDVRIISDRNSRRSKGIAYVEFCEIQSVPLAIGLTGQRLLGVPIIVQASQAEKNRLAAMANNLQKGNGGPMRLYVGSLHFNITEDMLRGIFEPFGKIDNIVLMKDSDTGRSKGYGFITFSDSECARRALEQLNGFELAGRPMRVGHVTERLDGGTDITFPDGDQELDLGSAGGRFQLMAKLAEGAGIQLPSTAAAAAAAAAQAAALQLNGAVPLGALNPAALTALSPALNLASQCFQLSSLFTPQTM
UniProt Q99708: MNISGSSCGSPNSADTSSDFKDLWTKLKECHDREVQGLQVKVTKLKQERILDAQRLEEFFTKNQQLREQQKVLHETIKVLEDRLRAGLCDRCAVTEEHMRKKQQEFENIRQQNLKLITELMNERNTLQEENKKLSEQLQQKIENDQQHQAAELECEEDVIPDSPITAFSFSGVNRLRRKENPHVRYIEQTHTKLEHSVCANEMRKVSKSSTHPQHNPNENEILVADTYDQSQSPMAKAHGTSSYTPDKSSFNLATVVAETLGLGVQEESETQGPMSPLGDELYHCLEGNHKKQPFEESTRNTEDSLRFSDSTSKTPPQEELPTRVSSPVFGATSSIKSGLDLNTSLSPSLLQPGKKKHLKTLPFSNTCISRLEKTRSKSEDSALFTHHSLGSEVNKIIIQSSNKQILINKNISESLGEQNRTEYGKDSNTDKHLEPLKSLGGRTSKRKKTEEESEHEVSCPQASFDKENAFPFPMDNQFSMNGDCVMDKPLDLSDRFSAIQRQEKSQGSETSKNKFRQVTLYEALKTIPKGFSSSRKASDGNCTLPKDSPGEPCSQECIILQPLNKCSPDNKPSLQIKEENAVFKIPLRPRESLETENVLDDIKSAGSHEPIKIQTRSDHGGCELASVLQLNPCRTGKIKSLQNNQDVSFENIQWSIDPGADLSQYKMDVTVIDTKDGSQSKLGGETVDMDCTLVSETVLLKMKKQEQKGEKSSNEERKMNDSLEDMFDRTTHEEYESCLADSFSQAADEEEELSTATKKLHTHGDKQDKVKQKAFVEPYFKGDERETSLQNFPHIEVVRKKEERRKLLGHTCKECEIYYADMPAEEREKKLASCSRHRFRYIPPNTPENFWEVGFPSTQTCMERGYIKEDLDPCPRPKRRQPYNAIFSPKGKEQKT
UniProt Q9Y2P8: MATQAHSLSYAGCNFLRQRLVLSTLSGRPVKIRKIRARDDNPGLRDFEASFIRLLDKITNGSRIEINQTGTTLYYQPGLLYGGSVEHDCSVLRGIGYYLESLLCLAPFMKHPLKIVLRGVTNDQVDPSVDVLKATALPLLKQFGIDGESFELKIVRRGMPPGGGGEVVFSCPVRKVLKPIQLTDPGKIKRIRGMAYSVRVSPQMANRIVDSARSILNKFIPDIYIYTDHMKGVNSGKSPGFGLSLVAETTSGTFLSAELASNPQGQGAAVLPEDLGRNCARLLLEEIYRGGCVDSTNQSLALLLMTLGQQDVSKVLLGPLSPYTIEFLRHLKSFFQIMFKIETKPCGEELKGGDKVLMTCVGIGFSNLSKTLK
UniProt Q9H0Z9: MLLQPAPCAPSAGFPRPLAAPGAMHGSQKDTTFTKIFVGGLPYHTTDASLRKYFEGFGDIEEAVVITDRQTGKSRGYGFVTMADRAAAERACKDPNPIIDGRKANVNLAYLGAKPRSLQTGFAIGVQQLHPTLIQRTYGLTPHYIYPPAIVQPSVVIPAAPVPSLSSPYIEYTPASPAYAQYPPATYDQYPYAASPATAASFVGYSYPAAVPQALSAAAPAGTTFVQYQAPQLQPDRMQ

Experiment in all cases: log2 fold change, soluble protein after heating vs DMSO (PISA); higher = thermal stabilisation; K562 lysate, 10 uM; active = over 0.2 and 3.5 SD of the protein, either way, in both replicates (recomputed)
Compound in one test: Cc1cn(-c2cc(NC(=O)c3ccc(C)c(Nc4nccc(-c5cccnc5)n4)c3)cc(C(F)(F)F)c2)cn1 [nilotinib]
Summed up:
(§1)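 Quantification was by TMTpro 16plex LC-MS/MS with equalised channel sums, applied to the supernatant after 21,000xg for 90 min. Samples were crude K562 extract at 1 mg/mL protein in PBS pH 7.4 with 1 mM MgCl2, treated with 10 μM compound for 30 min, heated for 3 min across 48°C-58°C, pooled and brought to 0.5% NP-40 at 4°C. Values are log-two fold changes in thermal stability relative to solvent controls, from duplicates.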

Compound in test [1]: Cc1nc(Nc2n[nH]c3c2CN(C(=O)N[C@H](CN(C)C)c2ccccc2)C3(C)C)c2sccc2n1
In outline:
as §1

Compound in another test: Cc1nc(Nc2ncc(C(=O)Nc3c(C)cccc3Cl)s2)cc(N2CCN(CCO)CC2)n1 [dasatinib]
Summed up: as §1

Compound in test [2]: Cc1ncc(-c2ccnc(Nc3ccc(S(C)(=O)=O)cc3)n2)n1C(C)C
In outline: as §1

Compound in test [3]: Cn1cc(-c2ccc3c(c2)CCN3C(=O)Cc2cccc(C(F)(F)F)c2)c2c(N)ncnc21
Summed up: as §1

Compound in the next test: Cn1cc(CNCC2CCN(c3ncc(C(=O)NO)cn3)CC2)c2ccccc21 [quisinostat]
In outline: as §1

Compound in another test: Cn1cncc1[C@@](N)(c1ccc(Cl)cc1)c1ccc2c(c1)c(-c1cccc(Cl)c1)cc(=O)n2C [tipifarnib]
Summed up:
as §1

Compound in test [4]: NC(=O)Nc1cc(-c2cccc(F)c2)sc1C(=O)N[C@H]1CCCNC1
In outline:
as §1

Compound in test [5]: NC(=O)c1cnc(N[C@@H]2CCCC[C@@H]2N)nc1Nc1cccc(-n2nccn2)c1
In outline: as §1

Compound in test [6]: NC1(c2ccc(-c3nc4ccn5c(=O)[nH]nc5c4cc3-c3ccccc3)cc2)CCC1
In outline:
as §1

Compound in test [7]: NCC(=O)Nc1ccc(-n2nc(C(F)(F)F)cc2-c2ccc3c(ccc4ccccc43)c2)cc1
Summed up:
as §1

Compound in a further test: O=C(CCCCCCC(=O)Nc1ccccc1)NO [vorinostat]
Summed up:
as §1

Compound in a further test: O=C(O)c1ccc2c(c1)nc(Nc1cccc(Cl)c1)c1ccncc12 [silmitasertib]
In outline: as §1

Compound in test [8]: O=C1NC(=O)C(c2cnc3ccccn23)=C1c1cn2c3c(cc(F)cc13)CN(C(=O)N1CCCCC1)CC2
In outline:
as §1

Compound in the next test: c1cn2cc(-c3ccc4cn[nH]c4c3)nc(Nc3ccc(N4CCOCC4)cc3)c2n1 [entospletinib]
In outline:
as §1

The other results are listed elsewhere or left out.

For RFX7 (UniProt Q2KHR2), the log2 fold change with nilotinib was inactive: 0.084; in test [1], inactive: 0.074; with dasatinib, inactive: 0.157; in test [2], inactive: -0.009; in [3], inactive: 0.012; with quisinostat, inactive: -0.027. For the same target, the log2 fold change with tipifarnib is inactive: -0.174; in [4], inactive: 0.001; in test [5], inactive: 0.047; in test [6], inactive: -0.038; in test [7], inactive: -0.053; with vorinostat, inactive: -0.046. Also, the figures for the log2 fold change (with silmitasertib; in test [8]; with entospletinib) were inactive: 0.045, inactive: 0.016 and inactive: -0.057, respectively.

In the case of RBBP4 (UniProt Q09028), the log2 fold change with nilotinib is inactive: 0.054; in test [1] it was inactive: 0.062; in the test with dasatinib, inactive: -0.005; in test [2], inactive: 0.059; in test [3] it was inactive: -0.029; with quisinostat it was inactive: -0.041. Moreover, the log2 fold change is inactive: 0.012 with tipifarnib; inactive: -0.018 in test [4]; inactive: -0.034 in test [5]; inactive: -0.019 in test [6]; inactive: 0.018 in [7]; inactive: 0.104 with vorinostat. In addition, the results for the log2 fold change (in the test with silmitasertib; in [8]; with entospletinib) were inactive: 0.016, inactive: 0.008 and inactive: -0.007, respectively.

Turning to RGPD5 (UniProt Q99666), the log2 fold change in the test with nilotinib is inactive: 0.068; in test [1] it was inactive: -0.012; with dasatinib it was inactive: 0.018; in [2], inactive: -0.002; in test [3], inactive: 0.002; in the test with quisinostat, inactive: -0.016. Moreover, the log2 fold change in the test with tipifarnib was inactive: -0.022; in test [4], inactive: 0.025; in test [5], inactive: -0.063; in test [6], inactive: -0.005; in test [7] it was inactive: -0.037; with vorinostat it was inactive: -0.033. Moreover, the log2 fold change was inactive: -0.061 in the test with silmitasertib, inactive: 0.019 in [8] and inactive: -0.057 in the test with entospletinib.

For RECQL5 (UniProt O94762), the log2 fold change with nilotinib was inactive: -0.026; in [1], inactive: 0.057; with dasatinib, inactive: 0.023; in test [2], inactive: 0.011; in [3] it was inactive: -0.04; with quisinostat, inactive: -0.013. Further, the log2 fold change is inactive: -0.064 in the test with tipifarnib; inactive: 0.034 in [4]; inactive: 0.343 in test [5]; inactive: 0.049 in [6]; inactive: -0.063 in test [7]; active: -0.307 with vorinostat. Also, the log2 fold change with silmitasertib was inactive: -0.094; in [8], inactive: 0.03; with entospletinib it was inactive: 0.024.

Take RBM23 isoform 2 (UniProt Q86U06): the log2 fold change was inactive: 0.172 with nilotinib; inactive: 0.021 in test [1]; inactive: -0.004 in the test with dasatinib; inactive: -0.065 in test [2]; inactive: -0.061 in test [3]; inactive: -0.047 with quisinostat. The log2 fold change with tipifarnib is inactive: -0.168; in [4], inactive: -0.024; in test [5] it was inactive: -0.056; in test [6] it was inactive: 0.021; in test [7] it was inactive: 0.121; with vorinostat, inactive: -0.334. For the same target, the log2 fold change with silmitasertib was inactive: -0.019; in [8], inactive: -0.113; with entospletinib, inactive: 0.037.

RBBP8 isoform 2 (UniProt Q99708): the log2 fold change is inactive: -0.07 with nilotinib; inactive: -0.003 in [1]; inactive: 0.063 with dasatinib; inactive: 0.081 in [2]; inactive: 0.031 in [3]; inactive: 0.074 with quisinostat. For the same target, the log2 fold change with tipifarnib is inactive: 0.022; in [4], inactive: 0.033; in test [5] it was inactive: 0.035; in test [6], inactive: -0.026; in test [7], inactive: -0.035; with vorinostat, inactive: 0.076. The results for the log2 fold change (with silmitasertib; in test [8]; in the test with entospletinib) were inactive: -0.13, inactive: -0.028 and inactive: -0.002, respectively.

As to RCL1 (UniProt Q9Y2P8), the log2 fold change in the test with nilotinib was inactive: -0.025; in [1] it was inactive: -0.04; with dasatinib, inactive: -0.072; in test [2] it was inactive: -0.012; in [3], inactive: 0.06; with quisinostat, inactive: -0.021. Also, the log2 fold change is inactive: -0.021 with tipifarnib; inactive: -0.069 in [4]; inactive: -0.004 in test [5]; inactive: 0.039 in test [6]; inactive: 0.044 in [7]; inactive: -0.2 with vorinostat. Moreover, the log2 fold change with silmitasertib was inactive: 0.112; in [8], inactive: -0.03; in the test with entospletinib it was inactive: -0.052.

For the target RECQL (UniProt P46063), the log2 fold change is inactive: 0.052 with nilotinib; inactive: 0.007 in [1]; inactive: -0.011 with dasatinib; inactive: 0.033 in [2]; inactive: 0.005 in test [3]; inactive: -0.021 with quisinostat. For the same target, the log2 fold change with tipifarnib was inactive: 0.005; in test [4], inactive: 0.019; in [5], inactive: -0.002; in test [6], inactive: -0.011; in test [7], inactive: 0.01; in the test with vorinostat, inactive: -0.074. The values for the log2 fold change (with silmitasertib; in test [8]; with entospletinib) were inactive: 0.002, inactive: -0.023 and inactive: 0.011, respectively.

RBM38 (UniProt Q9H0Z9): the log2 fold change with nilotinib is inactive: -0.041; in [1] it was inactive: 0.016; with dasatinib, inactive: -0.244; in test [2] it was inactive: 0.054; in test [3], inactive: -0.008; with quisinostat, inactive: 0.013. Further, the log2 fold change with tipifarnib was inactive: 0.006; in test [4], inactive: 0.036; in test [5] it was inactive: 0.067; in test [6], inactive: 0.021; in test [7], inactive: -0.02; with vorinostat, inactive: -0.011. Besides, the log2 fold change was inactive: -0.006 with silmitasertib, inactive: -0.106 in [8] and inactive: -0.04 with entospletinib.
